Test results published in PMC9607959.
Results are given in words; binding and its absence hold for the method and conditions named.

Protein sequences, listed by entry. Tags and fused reporters are not part of them. Lines headed by an entry give the natural chain unless they say otherwise; changes in a name come on top. Residues count along the entry.
UniProt P68874, residues 552-731: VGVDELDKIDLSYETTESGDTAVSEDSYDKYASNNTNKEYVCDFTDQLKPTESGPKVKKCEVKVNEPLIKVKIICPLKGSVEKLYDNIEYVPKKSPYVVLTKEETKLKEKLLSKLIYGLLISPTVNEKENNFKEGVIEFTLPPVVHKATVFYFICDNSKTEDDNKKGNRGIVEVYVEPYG

Target: engineering lot of Pfs230D1+ protein (Plasmodium falciparum 3D7) (UniProt P68874)
Assay: SEC; Size Exclusion Chromatography HPLC (SEC-HPLC) of the purified engineering lot; percent of monomer; methods as in ref. 17; both purified

- binding: no binding
Substance: engineering lot of Pfs230D1+ protein (from UniProt P68874 552-731) (domain or fragment)
